Results reported in patent publication WO2016030488A1.
Results are given in words; binding and its absence hold for the method and conditions named. Binding calls can cover weak binding; strength is not graded here.

How the values were obtained:
[1] = biological target: human KIR3DL2 polypeptide, wild type (allele *002) (human); assay: flow cytometry screen on HUT78, COU-L and HEK-293T/KIR3DL2 Domain 0 - eGFP cells
[2] = biological target: human KIR3DL2 polypeptide, wild type (allele *002) (human); assay: binding to cells transfected with wild type KIR3DL2
[3] = biological target: human KIR3DL2 polypeptide, wild type (allele *002) (human); assay: flow cytometry competition on HUT78 cells

Measured: binding

B1: antibody 19H12 (antibody, V domains shown)
VH: QIQLVQSGPELKKPGETVKISCKASGYTFTNFGMNWVKQAPGKGLKWMGWINTYTGEPTYADDFKGRFAFSLETSASTAYLQINNLKNEDMATYFCARNGNFGYYFDYWGQGTTLTVSS
VL: DVLMTQTPLSLPVSLGDQASFSCRSSQNIVHSNGNTYLEWYLQKPGQSPSLLIYKVSNRFSGVPDRFSGSGSGTDFTLKITRVEAEDLGVYYCFQGSHVPFTFGSGTKLEIK
binds: all assays above
